# The list shows a part of the results.
# Target: T1, OsSMF1 (Oryza sativa, UniProt Q6ZLB0 1-436)
# T1 sequence: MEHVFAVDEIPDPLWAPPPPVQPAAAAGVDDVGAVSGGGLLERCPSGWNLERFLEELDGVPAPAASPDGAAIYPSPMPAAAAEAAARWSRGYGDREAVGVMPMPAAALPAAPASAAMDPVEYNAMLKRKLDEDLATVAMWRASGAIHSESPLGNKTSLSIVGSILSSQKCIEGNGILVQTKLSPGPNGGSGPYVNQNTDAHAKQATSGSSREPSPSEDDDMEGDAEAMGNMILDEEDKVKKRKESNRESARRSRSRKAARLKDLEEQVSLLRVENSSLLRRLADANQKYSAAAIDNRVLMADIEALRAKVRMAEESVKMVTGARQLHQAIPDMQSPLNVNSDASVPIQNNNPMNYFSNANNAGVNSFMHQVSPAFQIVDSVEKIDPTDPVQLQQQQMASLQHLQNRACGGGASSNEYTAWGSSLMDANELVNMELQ
# Test: protein-binding microarray (RPBM); PBS, 2% BSA, 51.3 ng/ul salmon testes DNA, 50 uM zinc acetate, 200 nM TF, 25 C, 1 h; high values mean tight binding
# Details: protein: recombinant; tags: N-terminal polyhistidine and DsRed monomer fusion (pET32a); chain copies: 2; label: CyDye5-dUTP incorporated in the synthesized complementary strand; 3' TTTTT single-stranded linker to array surface; dsDNA, one strand shown
# Summary of the method: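 A custom Agilent array was converted to double-stranded form by primer extension with Cy5-dUTP and blocked with 2% BSA. Protein at 200 nM in PBS with 2% BSA, salmon testes DNA and 50 µM zinc acetate was applied for 1 h at 25 °C, followed by washing. The proteins were polyhistidine–DsRed N-terminal fusions of transcription factors, expressed in E. coli BL21-CodonPlus and Ni–NTA-purified. The binding signal is per-feature fluorescence intensity (arbitrary units) from an Axon 4000B scanner.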
row,Sequence,binding signal
1,GTGGTTGACATGTGGACCTGGTCCTATATGTCAGTGGCTGCGGAGTCACCTAGTGCAG,3510 fluorescence intensity (a.u.)
2,CGAAGCCGCACGAAGGTGGTGGTGGTTGGTGGTAGGGTTTCGGAGTCACCTAGTGCAG,3190 fluorescence intensity (a.u.)
3,GGCTCTGGCAGCACAATTCAGTTCTTGTACTTGTGAAACACGGAGTCACCTAGTGCAG,18200 fluorescence intensity (a.u.)
4,GTGAGAGCTCGGGATGTAGCGTGGCGTGGCGGCGCGGGTCCGGAGTCACCTAGTGCAG,4040 fluorescence intensity (a.u.)
5,GTTGTCAAATGAGTCAATTAGATATTTCCAACCCACACTACGGAGTCACCTAGTGCAG,4900 fluorescence intensity (a.u.)
6,GTTACTCACATAATATCGTGGCAGGGAGGCATTGATGATGCGGAGTCACCTAGTGCAG,3580 fluorescence intensity (a.u.)
7,TCCACCACCACCACCATGCATCACCACGTAGACAAATTCACGGAGTCACCTAGTGCAG,6060 fluorescence intensity (a.u.)
8,ATCTACTGATCTAGTCATCGATCCATGCATCCATCCATCACGGAGTCACCTAGTGCAG,6180 fluorescence intensity (a.u.)
9,GATACACGCATCATCATCATCATCATCATCATCCGTACAACGGAGTCACCTAGTGCAG,4540 fluorescence intensity (a.u.)
10,TCCTCCTCCCGCACAGATTCCGCAGTCGAGTCGCACTCCACGGAGTCACCTAGTGCAG,3470 fluorescence intensity (a.u.)
11,GGCGCCGGGGTGGGGTGGTGCTGGAGCCACCGGAGGAGCGCGGAGTCACCTAGTGCAG,4510 fluorescence intensity (a.u.)
12,CCACTAACCGGATCCATATATATTCGATTTTGGGTGGTGGCGGAGTCACCTAGTGCAG,3150 fluorescence intensity (a.u.)
13,TGTGGTTACTGTGTCGTTACTGTCTATATACCTCCCTGTTCGGAGTCACCTAGTGCAG,3160 fluorescence intensity (a.u.)
14,AACTTTGATGTTTAACACGTAATGTTACTGATCAAGCTTTCGGAGTCACCTAGTGCAG,3600 fluorescence intensity (a.u.)
15,GGGACCCAGGGTCGGGTTGCCAGTTCGGTCTGAATCATCGCGGAGTCACCTAGTGCAG,3600 fluorescence intensity (a.u.)
16,GATCGACGGAGAGGATCGAGGCGCGCGCTGACGTCAGCTCCGGAGTCACCTAGTGCAG,26300 fluorescence intensity (a.u.)
17,ACGGATGTCATGGCGGCGTCGTGGCCCCTGTCGCGGCGTGCGGAGTCACCTAGTGCAG,3520 fluorescence intensity (a.u.)
18,GAAATAATTAATCAATTAACGCTGATGTGTGAGCTGCGTACGGAGTCACCTAGTGCAG,6010 fluorescence intensity (a.u.)
19,AAAGTCAACGGTGTCAAATATTTTAAAACGGAGGGAGTATCGGAGTCACCTAGTGCAG,5540 fluorescence intensity (a.u.)
20,TTTGAGTCCACATCATCACAGTACCCTACTCTTATACTCCCGGAGTCACCTAGTGCAG,14200 fluorescence intensity (a.u.)
21,AGGCTTAAAAGATTCATCTCGTAATTTACACGTAATCTGTCGGAGTCACCTAGTGCAG,4430 fluorescence intensity (a.u.)

# Copied from the list.
# binding signal, GATACACGCATCATCATCATCATCATCATCATCCGTACAACGGAGTCACCTAGTGCAG reads 4540 fluorescence intensity (a.u.)
# binding signal, GTTGTCAAATGAGTCAATTAGATATTTCCAACCCACACTACGGAGTCACCTAGTGCAG reads 4900 fluorescence intensity (a.u.)

# Additional records

row,Sequence,binding signal
1,ATAAGCTCTCTATAAGAAATCCATGTCAGCATATTTTCCTCGGAGTCACCTAGTGCAG,15300 fluorescence intensity (a.u.)
2,GTCAACACCGCTACGTCAACGTCATGTCAGTAAAACCTTTCGGAGTCACCTAGTGCAG,4300 fluorescence intensity (a.u.)
3,GAAAAGCTTCATTGTTGGCTTATCTATAAAATATATGATTCGGAGTCACCTAGTGCAG,3540 fluorescence intensity (a.u.)
4,TAAATCCACACCACACCAGTATCTATCTTGGCTCTGGTTCCGGAGTCACCTAGTGCAG,3580 fluorescence intensity (a.u.)
5,GTGATTTATCCGAGCAGAGTGGCGGCGGCTTCGCCGAGTACGGAGTCACCTAGTGCAG,39600 fluorescence intensity (a.u.)
6,TGTTTGCATATAATATTGCCAGCTCAAGGATGACAAGTATCGGAGTCACCTAGTGCAG,3940 fluorescence intensity (a.u.)
7,GAGCGCGAGCTGCTCTCCTCTCCTCCCGCCCCGCGTCGCCCGGAGTCACCTAGTGCAG,11500 fluorescence intensity (a.u.)
8,TGATTTATTGGATGGATCTGAGATGACCTGTGATGTATTTCGGAGTCACCTAGTGCAG,3230 fluorescence intensity (a.u.)
9,CCGTGGAAGTGCGCGTGCGTCCGCTTGCGTGGTTTTGGAACGGAGTCACCTAGTGCAG,4210 fluorescence intensity (a.u.)
10,CCAACGTTCGCCCCGACGCGTTCCACCTCATCGGCCACCCCGGAGTCACCTAGTGCAG,8460 fluorescence intensity (a.u.)
11,AGGCTGCGCCGCCACGGGCGCCTGCGTCACCCCGTCCCATCGGAGTCACCTAGTGCAG,4980 fluorescence intensity (a.u.)
12,ACAAAAGCCGCCGTGACGAAGCAGATCGAAGCATCGCGCCCGGAGTCACCTAGTGCAG,3550 fluorescence intensity (a.u.)
13,AGATATATGCATACGTGTTTAAAGCTTATCACTATATCAACGGAGTCACCTAGTGCAG,6090 fluorescence intensity (a.u.)
14,GATCCTCTCCATGTCAGCAGATGAAGCAGCAGCCATCCCGCGGAGTCACCTAGTGCAG,5220 fluorescence intensity (a.u.)
15,TTATTGATACATGGCTGGGACGCCGCGACGTCACCGCTCCCGGAGTCACCTAGTGCAG,5060 fluorescence intensity (a.u.)
16,GACACATGAGGGTCCACGTGTTATAGATAGTGAGTGGCAGCGGAGTCACCTAGTGCAG,9820 fluorescence intensity (a.u.)
17,AAGATGTGTCATACATGACATCTTACTTTATATTTCTTATCGGAGTCACCTAGTGCAG,3600 fluorescence intensity (a.u.)
18,AAGCCTCTTGTCGTCTCTTTGACCCAACGACCCCGCCATTCGGAGTCACCTAGTGCAG,3230 fluorescence intensity (a.u.)
19,TCAACACTGCCACGTAAGCACCACGTAAGCTAAAACCGCTCGGAGTCACCTAGTGCAG,27100 fluorescence intensity (a.u.)
20,CCTCCACCCTCACCGGCGCCACGCCGACGCCTCCGCCCTCCGGAGTCACCTAGTGCAG,5600 fluorescence intensity (a.u.)
21,GCTAACCAATTGAGAATCATCGACGTTGTGTCATCTTGTGCGGAGTCACCTAGTGCAG,4250 fluorescence intensity (a.u.)

# — publication PMC7819943, “Rice protein-binding microarrays: a tool to detect cis-acting elements near promoter regions in rice”
